PubChem BioAssay AID504774 | Drosophila RNAi Screening Center | 2011
Test: 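Knock-downs that shift viability of MMS-exposed cells relative to untreated ones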 (primary screen). System: Drosophila Kc167 cells. Knock-down reagent: long dsRNA against Drosophila genes, about 0.25 µg dsRNA per well. Time to read-out: about 6 days: 3 days knock-down, then 3 days with or without MMS. Treatment: methyl methanesulphonate 0.004% (w/v) for 3 days after knock-down. Detection: 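Viability in wells given MMS, read as ATP luminescence, normalised by quantiles plate by plate and averaged across replicates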. Reading the numbers: mean viability with MMS: higher = more surviving cells after MMS.
The deposit covers about 23,000 reagents; below is a random part of those that have a named target and a result. 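Values are quantile-normalised luminescence on an arbitrary scale; higher means more cells surviving MMS.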 The numbers tell different reagents against one gene apart. A plus sign joins genes that one reagent is predicted to hit. Not all columns of the deposit are shown.

mean viability with MMS, by target gene and reagent
CG2663: #1 3.58e6
CG17917: #1 3.58e6
CG5493 + CG5327: #1 3.71e6
CG31674: #1 3.51e6
Cht7 (Chitinase 7): #1 3.42e6; #2 3.33e6
CG9427: #1 3.53e6
CG10151: #1 3.47e6
Etfb (Electron transfer flavoprotein beta subunit): #1 3.71e6
Hs3st-A (Heparan sulfate 3-O sulfotransferase-A): #1 2.87e6; #2 3.59e6; #3 3.45e6
CG31121: #1 3.66e6; #2 3.56e6
p (pink): #1 3.45e6
CG9886: #1 3.58e6
twit (target of wit): #1 3.63e6
CG9083: #1 3.58e6
CG14314: #1 3.65e6
retm (real-time): #1 3.64e6
lin-28: #1 3.31e6
eIF1 (eukaryotic translation initiation factor 1): #1 3.45e6
CG17219: #1 3.50e6
CG13337: #1 3.63e6
CG33543: #1 3.54e6; #2 3.50e6
stas (Stasimon): #1 3.93e6
Ravus: #1 3.59e6
SLIRP1 + anox: #1 3.56e6
abs (abstrakt): #1 3.45e6
CG5023: #1 3.83e6
Clic (Chloride intracellular channel): #1 3.38e6
Jon99Fii (Jonah 99Fii): #1 3.58e6
chb (chromosome bows): #1 3.46e6
Srg3 (Sting-regulated gene 3): #1 3.44e6; #2 3.73e6
udd (under-developed): #1 3.60e6
CG40298: #1 3.48e6
Atg14 (Autophagy-related 14): #1 3.59e6
CG9837: #1 3.51e6
Uch (Ubiquitin carboxy-terminal hydrolase): #1 3.40e6
CG13919: #1 3.51e6
CG15212: #1 3.58e6
scu (scully): #1 3.58e6
Gasp: #1 3.84e6
Tk (Tachykinin): #1 3.40e6; #2 3.61e6
aos (argos): #1 3.49e6
Mnn1 (Menin 1): #1 3.77e6
stet (stem cell tumor): #1 3.58e6; #2 3.69e6
ND-MNLL (NADH dehydrogenase (ubiquinone) MNLL subunit): #1 3.60e6
CG33309: #1 3.53e6
lok (loki): #1 3.55e6
Pi3K59F (Phosphatidylinositol 3-kinase 59F): #1 3.67e6
CG30432: #1 3.52e6
CG42353 + CG42354: #1 3.57e6
Nf-YB (Nuclear factor Y-box B): #1 3.59e6
corolla: #1 3.69e6
lt (light): #1 3.49e6
TwdlZ (TweedleZ): #1 3.58e6
AsnRS-m (Asparaginyl-tRNA synthetase, mitochondrial): #1 3.61e6
CG5065: #1 3.59e6
Acp98AB (retired record): #1 3.48e6
Tgt (tRNA-guanine transglycosylase): #1 3.48e6
Orc1 (Origin recognition complex subunit 1): #1 1.54e6
ds (dachsous): #1 3.55e6
CG7781: #1 3.66e6

Part of the list above, reformatted.
scu (scully): mean viability with MMS = 3.58e6
Gasp: mean viability with MMS = 3.84e6
Tk (Tachykinin) #1: mean viability with MMS = 3.40e6
Tk (Tachykinin) #2: mean viability with MMS = 3.61e6
aos (argos): mean viability with MMS = 3.49e6
Mnn1 (Menin 1): mean viability with MMS = 3.77e6
stet (stem cell tumor) #1: mean viability with MMS = 3.58e6
